For one experiment, the system named is HT-29 (CRC). The experiment is described as follows: MTT cell viability assay, HT-29. As to conditions: Homo sapiens, HT-29, 48 h, read-out: cell viability. The protocol: (§1) Cell Culture Conditions. The cell lines were obtained from the American Type Culture Collection (ATCC). PANC-1 and Caco-2 cell lines were maintained in DMEM medium (Gibco); HT-29, HCT-116 and RKO cells were maintained in McCoy's 5A medium (Gibco); and DU-145 and H1299 cells were maintained in RPMI 1640 medium (Gibco), supplemented with 10% fetal bovine serum (FBS; Gibco) and 1% antibiotics (10.00 units/mL penicillin and 10.00 mg/mL streptomycin; Gibco). Cells were preserved in tissue culture flasks at 37° C. and 5% CO2. Culture medium was replaced every three days.
(§2) Cell Viability Assay. The effect of each compound on cell viability was tested using the MTT assay (81). Briefly, 9000 cells/well were grown in 96-well plates for 12 h. Then these cells were incubated with either DMSO (control) or nine different concentration between 0.01-50 μM of the test compounds for 24, 48, and 72 h. Three hours before the termination point, 20 μL of MTT were added to measure cellular viability. The resultant formazan crystals were dissolved in 50 μL of DMSO, and absorbance was measured at 570 nm and 630 nm wavelengths. IC50, GI50, TGI and LC50 values were calculated using OriginPro 8.5.1.
(§3) Evaluation of the antiproliferative activities of the novel molecules. […] These four cell lines were treated with each compound at three concentrations (5, 25 and 50 μM) for 48 h.

The test system of experiment [1] is DU-145 (prostate carcinoma). Nature of the experiment: MTT cell viability assay, DU-145. The settings on record: Homo sapiens, DU-145, 48 h, read-out: cell viability. The protocol:
as §1, §2, §3
(Formazan colour is commonly taken as a measure of viable cells.)

Another experiment has as its system H1299 (lung carcinoma). The experiment is described as follows: MTT cell viability assay, H1299. The settings on record: Homo sapiens, NCI-H1299, 48 h, read-out: cell viability. The protocol: as §1, §2, §3
Experiment [2] has as its system PANC-1 (pancreatic carcinoma). Nature of the experiment: MTT cell viability assay, Panc-1. As to conditions: Homo sapiens, PANC-1, 48 h, read-out: cell viability. The protocol:
as §1, §2, §3

Turning to `COc1ccc2cc([C@H](C)C(=O)O)ccc2c1` [Nap, Naproxen, reference compound], the viability (usually a read-out of living cells in per cent, often relative to untreated cells) at 5 µM in the experiment on HT-29 (CRC) is 97.2 ± 3.9%; in experiment [1], 100 ± 8.4%; in the experiment with H1299 (lung carcinoma) it was 100 ± 4.9%; in experiment [2], 89.6 ± 1.2%. The viability at 25 µM worked out at 99.6 ± 5.5% with HT-29 (CRC), 100% in experiment [1], 100% with H1299 (lung carcinoma) and 91.1 ± 9.8% in experiment [2]. Moreover, the viability at 50 µM in the experiment on HT-29 (CRC) was determined as 98.4 ± 3.2%; in experiment [1], 100 ± 9.5%; in the experiment on H1299 (lung carcinoma) it was 100%; in experiment [2], 95.7 ± 26%.

The values above are taken from patent US20230219886A1, “NOVEL SELENO-NSAID ANALOGS AND USES THEREOF” (THE PENN STATE RESEARCH FOUNDATION, priority 2020, published 2023).
